Results are given in words; binding and its absence hold for the method and conditions named. Some entries that bind do so weakly or less than the wild type. Each block holds one binder with its values, some of them ahead of it.
Assays:
[1] = biological target: Clca1 of mouse colonic mucus (mouse (endogenous in colonic mucus)) (UniProt Q9D7Z6); experiment: negative-stain electron microscopy
[2] = biological target: CLCA1 truncated after amino acid 868 (CLCA1-868) (human) (UniProt A8K7I4); experiment: SEC
[3] = biological target: CLCA1 truncated after amino acid 868 (CLCA1-868) (human) (UniProt A8K7I4); experiment: negative-stain electron microscopy
[4] = biological target: C-terminal cleavage product (CTP) of CLCA1-868 (human) (UniProt A8K7I4); experiment: SDS-PAGE with or without DTT and Western blot

- binding [1]: binds
B1: Clca1 of mouse colonic mucus (protein, UniProt Q9D7Z6 22-913)
chain: ESLIQLNNNGYEGIVIAIDHDVPEDEALIQHIKDMVTQASPYLFEATGKRFYFKNVAILIPESWKAKPEYTRPKLETFKNADVLVSTTSPLGNDEPYTEHIGACGEKGIRIHLTPDFLAGKKLTQYGPQDRTFVHEWAHFRWGVFNEYNNDEKFYLSKGKPQAVRCSAAITGKNQVRRCQGGSCITNGKCVIDRVTGLYKDNCVFVPDPHQNEKASIMFNQNINSVVEFCTEKNHNQEAPNDQNQRCNLRSTWEVIQESEDFKQTTPMTAQPPAPTFSLLQIGQRIVCLVLDKSGSMLNDDRLNRMNQASRLFLLQTVEQGSWVGMVTFDSAAYVQSELKQLNSGADRDLLIKHLPTVSAGGTSICSGLRTAFTVIKKKYPTDGSEIVLLTDGEDNTISSCFDLVKQSGAIIHTVALGPAAAKELEQLSKMTGGLQTYSSDQVQNNGLVDAFAALSSGNAAIAQHSIQLESRGVNLQNNQWMNGSVIVDSSVGKDTLFLITWTTHPPTIFIWDPSGVEQNGFILDTTTKVAYLQVPGTAKVGFWKYSIQASSQTLTLTVTSRAASATLPPITVTPVVNKNTGKFPSPVTVYASIRQGASPILRASVTALIESVNGKTVTLELLDNGAGADATKNDGVYSRFFTAFDANGRYSVKIWALGGVTSDRQRAAPPKNRAMYIDGWIEDGEVRMNPPRPETSYVQDKQLCFSRTSSGGSFVATNVPAAAPIPDLFPPCQITDLKASIQGQNLVNLTWTAPGDDYDHGRASNYIIRMSTSIVDLRDHFNTSLQVNTTGLIPKEASSEEIFEFELGGNTFGNGTDIFIAIQAVDKSNLKSEISNIARVSVFIPAQEPPIPEDSTPPCPDISINSTIPGIHVLKIMWKWLGEMQVTLGLH

- binding [2]: no binding
- binding [3]: no binding (tested: 20 µM)
B2: CLCA1 truncated after amino acid 868 (CLCA1-868) (domain or fragment, UniProt A8K7I4 22-694; A8K7I4 695-868)
chain 1: NSLIQLNNNGYEGIVVAIDPNVPEDETLIQQIKDMVTQASLYLLEATGKRFYFKNVAILIPETWKTKADYVRPKLETYKNADVLVAESTPPGNDEPYTEQMGNCGEKGERIHLTPDFIAGKKLAEYGPQGRAFVHEWAHLRWGVFDEYNNDEKFYLSNGRIQAVRCSAGITGTNVVKKCQGGSCYTKRCTFNKVTGLYEKGCEFVLQSRQTEKASIMFAQHVDSIVEFCTEQNHNKEAPNKQNQKCNLRSTWEVIRDSEDFKKTTPMTTQPPNPTFSLLQIGQRIVCLVLDKSGSMATGNRLNRLNQAGQLFLLQTVELGSWVGMVTFDSAAHVQNELIQINSGSDRDTLAKRLPAAASGGTSICSGLRSAFTVIRKKYPTDGSEIVLLTDGEDNTISGCFNEVKQSGAIIHTVALGPSAAQELEELSKMTGGLQTYASDQVQNNGLIDAFGALSSGNGAVSQRSIQLESKGLTLQNSQWMNGTVIVDSTVGKDTLFLITWTMQPPQILLWDPSGQKQGGFVVDKNTKMAYLQIPGIAKVGTWKYSLQASSQTLTLTVTSRASNATLPPITVTSKTNKDTSKFPSPLVVYANIRQGASPILRASVTALIESVNGKTVTLELLDNGAGADATKDDGVYSRYFTTYDTNGRYSVKVRALGGVNAARRRVIPQQSG
chain 2: ALYIPGWIENDEIQWNPPRPEINKDDVQHKQVCFSRTSSGGSFVASDVPNAPIPDLFPPGQITDLKAEIHGGSLINLTWTAPGDDYDHGTAHKYIIRISTSILDLRDKFNESLQVNTTALIPKEANSEEVFLFKPENITFENGTDLFIAIQAVDKVDLKSEISNIARVSLFIPP

- binding [4]: no binding
B3: C-terminal cleavage product (CTP) of CLCA1-868 (domain or fragment, UniProt A8K7I4 695-868)
chain: ALYIPGWIENDEIQWNPPRPEINKDDVQHKQVCFSRTSSGGSFVASDVPNAPIPDLFPPGQITDLKAEIHGGSLINLTWTAPGDDYDHGTAHKYIIRISTSILDLRDKFNESLQVNTTALIPKEANSEEVFLFKPENITFENGTDLFIAIQAVDKVDLKSEISNIARVSLFIPP
